Experimental data as given in the supplement of paper PMC7125110.
± gives the standard error. Many of these values have a large error.

B1: glmS ribozyme (parent)
chain: AUAAAAGCGCCAGAACUACAGAAAUGUAGUUGACGAGGAGGAGGUUUAUCGAAUUUUCGGCGGAUGCCUCCAAA

Variants of: B1
Assay: KM; higher = weaker cofactor use; RNA array
Details: with glucosamine-6-phosphate
Outline: (§1)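 A hybridised Cy3 probe tracked barcoded ribozyme variants, transcribed in situ by E. coli RNA polymerase on sequenced MiSeq chips, at 37 °C. The variants received 40 μM to 10 mM glucosamine-6-phosphate in HEPES/KCl/Mg(OAc)2 buffer. kobs came from decay fits and kcat and KM from weighted Michaelis–Menten fits.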
AUAAAAGCGCCUGAACUACAGAAAUGUAGUUGACGAGGAGGAGGUUUAUCGAAUUUCCGGCGGAUGCCUCCAAA [A12U U57C] showed a KM of 4270 ± 2800 µM.
AUAAAAGCGCCUGAACUACAGAAAUGUAGUUGACGAGGAGGAGGUUUAUCGAAUUUUCGGCGGAUGCCACCAAA [A12U U69A] was tested, and the KM was 53.4 ± 34 µM.
Work on AUAAAAGCGCCAAAACUACAGAAAUGUAGUUCACGAGGAGGAGGUUUAUCGAAUUUUCGGCGGAUGCCUCCAAA [G13A G32C] yielded a KM of 6080 ± 3300 µM.
AUAAAAGCGCCAAAACUACAGAAAUGUAGUUGACGAGGAGAAGGUUUAUCGAAUUUUCGGCGGAUGCCUCCAAA [G13A G41A] gave a KM of 1770 ± 270 µM.
For AUAAAAGCGCCAAAACUACAGAAAUGUAGUUGACGAGGAGUAGGUUUAUCGAAUUUUCGGCGGAUGCCUCCAAA [G13A G41U], the KM was 11800 ± 3000 µM.
For AUAAAAGCGCCAAAACUACAGAAAUGUAGUUGACGAGGAGGAGGUUUAUCGAAUUUCCGGCGGAUGCCUCCAAA [G13A U57C], the KM was 4540 ± 780 µM.
For AUAAAAGCGCCACAACUACAGAAAUGUAGUUGACGAGGAGGAGGUUUAUCGAAUUUUCGGCGGAUGCCUUCAAA [G13C C70U], the KM was 1400 ± 140 µM.
With AUAAAAGCGCCACAACUACAGAAAUGUAUUUGACGAGGAGGAGGUUUAUCGAAUUUUCGGCGGAUGCCUCCAAA [G13C G29U] the KM was 3700 ± 710 µM.
AUAAAAGCGCCACAACUACAGAAAUGUAGUUGACGAGGAGGAUGUUUAUCGAAUUUUCGGCGGAUGACUCCAAA [G13C G43U C67A] showed a KM of 32600 ± 21000 µM.
AUAAAAGCGCCACAACUACAGAAAUGUAGUUGACGAGGAGGAGGUUAAUCGAAUUUUCUGCGGAUGGCUCCAAA [G13C U47A G59U C67G] gave a KM of 511 ± 310 µM.
In the case of AUAAAAGCGCCAUAACUACAGAAAUGUAGUUGACGCGGAGGAGGUUUAUCGAAUUUUCGGCGGAUGCCUUCAAA [G13U A36C C70U], the KM is reported as 24.4 ± 14 µM.
Work on AUAAAAGCGCCAUAACUACAGAAAUGUAGUUGACGAGGAGGGGGAUUAUCGAAUUUUCGGCGGAUGCCUCCAAA [G13U A42G U45A] yielded a KM of 4260 ± 2600 µM.
In the case of AUAAAAGCGCCAUAACUACAGAAAUGUAGUUGACGAGGAGGAGGUUUAUCGAGUUUUCGGCGGAUGCCUCCAAA [G13U A53G], the KM is reported as 4460 ± 1300 µM.
Variant AUAAAAGCGCCAUAACUACAGAAAUGUACUUGACGAGGAGGAGGUUUAUCGAAUUUUCGGCGGAUGCCUCCAAA [G13U G29C] has a KM of 720 ± 620 µM.
Work on AUAAAAGCGCCAUAACUACAGAAAUGUAGUUGACGAGGAGCAGGUUUAUCGAAUUUUCGGCGGAUGCCUCCAAA [G13U G41C] yielded a KM of 101000 ± 12000 µM.
AUAAAAGCGCCAUAACUACAGAAAUGUAGUGGACGAGGAGGAGGUUUAUCGAAUUUUCGGCGGAUGCCUCCAAA [G13U U31G] was tested, and the KM was 2760 ± 1900 µM.
With AUAAAAGCGCCAUAACUACAGAAAUGUAGUUGACGAGGAGGAGGUAUAUCGAAUUUUCGGCGGAUGCCUCCAAA [G13U U46A] the KM was 479 ± 200 µM.
In the case of AUAAAAGCGCCAGCCCUACAGAAAUGUAGUUGACGAGGAGGAGGUUUAUCGAAUUUUCGGCGGAUGCCUCCAAA [A14C A15C], the KM is reported as 2740 ± 760 µM.
AUAAAAGCGCCAGCUCUACAGAAAUGUAGUUGACGAGGAGGAGGUUUAUCGAAUUGUCGGCGGAUGCCUCCAAA [A14C A15U U56G] gave a KM of 583 ± 440 µM.
AUAAAAGCGCCAGCACUACAGAAAUGUAGUUGACGAGGAGGAGUUUUAUCGAAUUUUCGGCGGAUGCCUCCAAA [A14C G44U] showed a KM of 1330 ± 1100 µM.
In the case of AUAAAAGCGCCAGCACUACAGAAAUGUAGUUGACGAGGAGGAGGUUUAUCGAAUUUUCGGCGGAUUCCUCCAAA [A14C G66U], the KM is reported as 1010 ± 570 µM.
AUAAAAGCGCCAGCACUACAGAAAUGUAGUUGACGAGGAGGAGGUUUAGCGAAUUUUCGGCGGAUGCCUCCAAA [A14C U49G] showed a KM of 6690 ± 570 µM.
AUAAAAGCGCCAGGACUACAGAAAUGUAGUUGACGAGGAGGAGGUUUAUCGAAUUUUGGGCGGAUGCCUCCAAA [A14G C58G] was tested, and the KM was 3880 ± 2900 µM.
AUAAAAGCGCCAGGACUACAGAAAUGUAGUUGACGAGGAGGAGGUUUAUCGAAUUUUUGGCGGAUGCCUCCAAA [A14G C58U] showed a KM of 10300 ± 3100 µM.
AUAAAAGCGCCAGGACUACAGAAAUGUAGUUGACGAGGAGGAGGUUUAUCGAAUUUUCGCCGGAUGCCUCCAAA [A14G G60C] gave a KM of 2710 ± 2600 µM.
In the case of AUAAAAGCGCCAGGACUACAGAAAUGUAGUUGACGAGGAGGAGGUUUAGCGAAUUUUCGGCGGAUGCCUCCAAA [A14G U49G], the KM is reported as 1530 ± 910 µM.
AUAAAAGCGCCAGUACUACAGAAAUGUAGUUGUCGAGGAGGAGGUUUAUCGAAUUUUCGGCGGAUGCCUCCAAA [A14U A33U] gave a KM of 13900 ± 3300 µM.
With AUAAAAGCGCCAGUACUACAGAAAUGUAGUUGACGAGGCGGAGGUUUAUCGAAUUUUCGGCGGAUGCCUCCAAA [A14U A39C] the KM was 2790 ± 700 µM.
In the case of AUAAAAGCGCCAGUACUACAGAAAUGUAGUUGACGAGGUGGAGGUUUAUCGGAUUUUCGGCGGAUGCCUCCAAA [A14U A39U A52G], the KM is reported as 113000 ± 20000 µM.
For AUAAAAGCGCCAGUACUACAGAAAUGUAGUUGACGAGGAGGAGGUUUAUCGAAUUUUCGGCGGAUGCCUCUAAA [A14U C71U], the KM was 2360 ± 1400 µM.
Work on AUAAAAGCGCCAGUACUACAGAAAUGUAGUUGACGAGGAGGAGGUUUAUCGAAUUUUCAGCGGAUGCCUCCAAA [A14U G59A] yielded a KM of 9990 ± 1000 µM.
For AUAAAAGCGCCAGUACUACAGAAAUGUAGUUGACGAGGAGGAGGUUUAUCGAAUUUUCUGCGGAUGCCUCCAAA [A14U G59U], the KM was 813 ± 500 µM.
AUAAAAGCGCCAGUACUACAGAAAUGUAGUAGACGAGGAGGAGGUUUAUCGAAUUUUCGGCGGAUGCCUCCAAA [A14U U31A] was tested, and the KM was 1360 ± 700 µM.

Variants of: B1
Assay: self-cleavage kobs at 10000 uM GlcN6P; higher = faster cleavage; RNA array
Details: with glucosamine-6-phosphate
Outline: as §1
AUAAAAGCGCCAAAACUACAGAAAUGUAGUUGACGAGGAGUAGGUUUAUCGAAUUUUCGGCGGAUGCCUCCAAA [G13A G41U] was tested, and the “self-cleavage kobs at 10000 uM GlcN6P” value was 2.63e-05 ± 2e-05 s⁻¹.

Variants of: B1
Assay: self-cleavage kobs at 160 uM GlcN6P; higher = faster cleavage; RNA array
Details: with glucosamine-6-phosphate
Outline: as §1
In the case of AUAAAAGCGCCACAACUACAGAAAUGUAGUUGACGAGGAGGAGGUUUAUCGAAUUUUCGGCGGAUGCCUUCAAA [G13C C70U], the “self-cleavage kobs at 160 uM GlcN6P” value is reported as 1.99e-05 ± 1.5e-05 s⁻¹.

Variants of: B1
Assay: self-cleavage kobs at 40 uM GlcN6P; higher = faster cleavage; RNA array
Details: with glucosamine-6-phosphate
Outline: as §1
AUAAAAGCGCCAUAACUACAGAAAUGUAGUUGACGAGGAGGGGGAUUAUCGAAUUUUCGGCGGAUGCCUCCAAA [G13U A42G U45A] was tested, and the “self-cleavage kobs at 40 uM GlcN6P” value was 2.3e-05 ± 2e-05 s⁻¹.

Variants of: B1
Assay: self-cleavage kobs at 640 uM GlcN6P; higher = faster cleavage; RNA array
Details: with glucosamine-6-phosphate
Outline: as §1
AUAAAAGCGCCAGUACUACAGAAAUGUAGUUGACGAGGUGGAGGUUUAUCGGAUUUUCGGCGGAUGCCUCCAAA [A14U A39U A52G] was tested, and the “self-cleavage kobs at 640 uM GlcN6P” value was 1.42e-05 ± 1.3e-05 s⁻¹.
